According to the supplement of paper PMC10849652:
The list shows a part of the results.

Protein sequences, listed by entry. Tags and fused reporters are not part of them. Lines headed by an entry give the natural chain unless they say otherwise; changes in a name come on top.
UniProt P49755: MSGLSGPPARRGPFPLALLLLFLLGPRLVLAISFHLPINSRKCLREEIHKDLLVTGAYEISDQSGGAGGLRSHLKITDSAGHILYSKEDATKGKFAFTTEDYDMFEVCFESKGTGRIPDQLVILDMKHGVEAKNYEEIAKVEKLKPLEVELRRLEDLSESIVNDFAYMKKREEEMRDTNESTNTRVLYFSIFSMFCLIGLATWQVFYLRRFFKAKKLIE
UniProt Q5U3C3: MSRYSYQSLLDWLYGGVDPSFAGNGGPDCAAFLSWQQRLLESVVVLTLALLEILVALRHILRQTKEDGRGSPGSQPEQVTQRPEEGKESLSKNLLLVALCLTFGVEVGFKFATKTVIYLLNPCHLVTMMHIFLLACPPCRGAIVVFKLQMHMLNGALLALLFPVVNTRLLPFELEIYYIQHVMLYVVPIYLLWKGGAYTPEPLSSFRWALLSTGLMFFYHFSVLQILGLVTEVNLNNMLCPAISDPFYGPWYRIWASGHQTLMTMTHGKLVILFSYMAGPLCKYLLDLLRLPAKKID
UniProt Q04727: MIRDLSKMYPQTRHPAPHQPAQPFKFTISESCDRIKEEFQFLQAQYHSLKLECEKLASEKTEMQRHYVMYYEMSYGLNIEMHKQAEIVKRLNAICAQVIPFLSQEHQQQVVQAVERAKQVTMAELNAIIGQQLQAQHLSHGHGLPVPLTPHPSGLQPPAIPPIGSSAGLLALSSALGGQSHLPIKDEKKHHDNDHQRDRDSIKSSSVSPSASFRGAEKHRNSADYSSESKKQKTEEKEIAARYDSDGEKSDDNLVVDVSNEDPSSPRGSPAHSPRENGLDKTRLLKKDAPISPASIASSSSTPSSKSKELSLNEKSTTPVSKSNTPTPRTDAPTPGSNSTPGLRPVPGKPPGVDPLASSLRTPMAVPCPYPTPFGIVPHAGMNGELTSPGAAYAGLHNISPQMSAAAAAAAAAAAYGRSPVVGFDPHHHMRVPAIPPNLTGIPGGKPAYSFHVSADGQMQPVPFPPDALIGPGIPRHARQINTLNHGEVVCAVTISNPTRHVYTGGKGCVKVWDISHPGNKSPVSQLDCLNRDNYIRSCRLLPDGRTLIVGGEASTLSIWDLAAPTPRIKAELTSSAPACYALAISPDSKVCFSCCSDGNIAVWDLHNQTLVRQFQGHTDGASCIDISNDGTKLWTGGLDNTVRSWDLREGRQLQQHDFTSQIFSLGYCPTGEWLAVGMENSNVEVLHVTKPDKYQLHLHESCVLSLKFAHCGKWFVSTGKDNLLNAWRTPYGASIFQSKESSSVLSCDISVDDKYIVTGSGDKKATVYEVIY
UniProt Q96RS0: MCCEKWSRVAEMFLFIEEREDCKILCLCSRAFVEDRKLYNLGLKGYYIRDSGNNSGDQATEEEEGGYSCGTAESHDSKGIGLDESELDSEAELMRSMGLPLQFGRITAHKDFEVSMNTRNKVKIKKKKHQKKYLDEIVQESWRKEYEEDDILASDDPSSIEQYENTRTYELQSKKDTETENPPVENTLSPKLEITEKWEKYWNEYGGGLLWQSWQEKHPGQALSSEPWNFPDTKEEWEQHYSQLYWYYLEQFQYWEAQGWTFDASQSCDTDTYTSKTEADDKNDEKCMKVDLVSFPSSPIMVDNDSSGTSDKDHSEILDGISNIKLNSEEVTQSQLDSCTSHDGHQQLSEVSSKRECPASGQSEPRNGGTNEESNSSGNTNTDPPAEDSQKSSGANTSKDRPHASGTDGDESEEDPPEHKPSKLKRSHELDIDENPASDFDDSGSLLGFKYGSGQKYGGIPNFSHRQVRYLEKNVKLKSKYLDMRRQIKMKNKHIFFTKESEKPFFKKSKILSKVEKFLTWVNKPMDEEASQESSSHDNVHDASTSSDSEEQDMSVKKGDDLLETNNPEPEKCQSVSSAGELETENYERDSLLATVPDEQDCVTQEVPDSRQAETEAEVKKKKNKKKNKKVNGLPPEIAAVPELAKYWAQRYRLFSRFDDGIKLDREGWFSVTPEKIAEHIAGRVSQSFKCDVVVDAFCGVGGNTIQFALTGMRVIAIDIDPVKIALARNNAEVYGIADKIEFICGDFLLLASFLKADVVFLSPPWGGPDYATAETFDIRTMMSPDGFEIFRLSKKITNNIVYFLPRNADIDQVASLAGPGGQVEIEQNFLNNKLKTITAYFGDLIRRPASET
UniProt P55061, whole entry, looked up: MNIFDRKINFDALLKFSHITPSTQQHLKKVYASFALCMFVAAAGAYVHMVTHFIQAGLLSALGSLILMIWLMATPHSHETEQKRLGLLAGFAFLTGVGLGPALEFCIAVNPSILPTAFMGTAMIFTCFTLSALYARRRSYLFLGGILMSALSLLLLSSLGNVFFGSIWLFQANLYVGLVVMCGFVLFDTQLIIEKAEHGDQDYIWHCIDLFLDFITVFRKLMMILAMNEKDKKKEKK
UniProt Q7Z403: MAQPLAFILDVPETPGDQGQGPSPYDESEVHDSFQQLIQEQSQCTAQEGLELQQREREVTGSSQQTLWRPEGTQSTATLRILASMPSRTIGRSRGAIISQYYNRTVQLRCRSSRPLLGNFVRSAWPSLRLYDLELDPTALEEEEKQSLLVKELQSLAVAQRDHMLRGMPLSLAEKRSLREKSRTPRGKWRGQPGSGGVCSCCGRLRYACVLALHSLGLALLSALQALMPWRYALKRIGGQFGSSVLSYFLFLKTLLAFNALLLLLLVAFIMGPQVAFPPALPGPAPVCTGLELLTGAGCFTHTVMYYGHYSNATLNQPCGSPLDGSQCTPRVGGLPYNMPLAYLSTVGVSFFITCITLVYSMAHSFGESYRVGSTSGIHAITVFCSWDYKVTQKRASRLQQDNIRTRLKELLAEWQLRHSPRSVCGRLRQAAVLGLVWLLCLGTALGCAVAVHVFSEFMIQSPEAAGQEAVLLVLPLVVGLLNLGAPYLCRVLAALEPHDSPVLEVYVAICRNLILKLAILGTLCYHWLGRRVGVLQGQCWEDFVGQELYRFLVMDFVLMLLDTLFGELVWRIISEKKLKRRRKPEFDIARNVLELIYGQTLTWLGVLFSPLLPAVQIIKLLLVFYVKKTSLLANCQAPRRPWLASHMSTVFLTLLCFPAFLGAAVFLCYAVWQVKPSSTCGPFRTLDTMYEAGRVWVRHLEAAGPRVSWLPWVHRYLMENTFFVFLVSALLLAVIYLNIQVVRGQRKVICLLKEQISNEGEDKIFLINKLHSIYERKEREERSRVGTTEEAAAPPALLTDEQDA
UniProt Q13769: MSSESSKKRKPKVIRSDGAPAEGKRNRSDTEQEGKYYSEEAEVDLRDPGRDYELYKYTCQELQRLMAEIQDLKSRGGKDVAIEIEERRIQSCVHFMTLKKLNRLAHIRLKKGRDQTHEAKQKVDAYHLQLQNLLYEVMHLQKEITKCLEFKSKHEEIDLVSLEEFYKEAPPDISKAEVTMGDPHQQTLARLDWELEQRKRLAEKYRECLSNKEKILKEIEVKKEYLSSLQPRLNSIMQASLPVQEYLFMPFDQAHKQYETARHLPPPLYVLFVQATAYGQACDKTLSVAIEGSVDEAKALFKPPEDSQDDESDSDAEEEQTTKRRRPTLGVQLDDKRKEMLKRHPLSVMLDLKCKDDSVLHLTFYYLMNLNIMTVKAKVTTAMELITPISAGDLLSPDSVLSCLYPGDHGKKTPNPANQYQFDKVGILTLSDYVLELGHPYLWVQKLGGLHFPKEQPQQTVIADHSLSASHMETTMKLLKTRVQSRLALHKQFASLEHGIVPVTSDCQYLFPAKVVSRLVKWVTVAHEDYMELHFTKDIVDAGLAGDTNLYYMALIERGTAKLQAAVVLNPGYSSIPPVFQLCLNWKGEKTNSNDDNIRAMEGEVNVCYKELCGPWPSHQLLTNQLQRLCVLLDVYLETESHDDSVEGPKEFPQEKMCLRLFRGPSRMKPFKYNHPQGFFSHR
UniProt Q99805: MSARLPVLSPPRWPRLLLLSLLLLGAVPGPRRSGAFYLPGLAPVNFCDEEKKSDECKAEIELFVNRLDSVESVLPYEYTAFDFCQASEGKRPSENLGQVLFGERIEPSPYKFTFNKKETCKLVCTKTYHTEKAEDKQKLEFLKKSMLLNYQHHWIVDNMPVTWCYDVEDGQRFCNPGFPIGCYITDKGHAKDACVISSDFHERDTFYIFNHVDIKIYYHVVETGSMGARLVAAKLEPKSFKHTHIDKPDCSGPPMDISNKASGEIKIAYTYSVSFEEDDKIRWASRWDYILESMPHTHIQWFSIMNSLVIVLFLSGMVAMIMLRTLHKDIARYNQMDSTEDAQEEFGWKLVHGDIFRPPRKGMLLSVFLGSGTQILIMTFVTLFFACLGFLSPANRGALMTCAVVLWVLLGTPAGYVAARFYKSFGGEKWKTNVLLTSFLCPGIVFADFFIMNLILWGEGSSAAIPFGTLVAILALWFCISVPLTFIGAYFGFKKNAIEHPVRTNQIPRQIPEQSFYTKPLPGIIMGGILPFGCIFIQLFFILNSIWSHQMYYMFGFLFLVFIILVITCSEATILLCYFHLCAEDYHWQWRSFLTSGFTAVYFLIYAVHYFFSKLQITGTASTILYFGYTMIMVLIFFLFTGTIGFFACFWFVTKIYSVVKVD
UniProt Q96MV1: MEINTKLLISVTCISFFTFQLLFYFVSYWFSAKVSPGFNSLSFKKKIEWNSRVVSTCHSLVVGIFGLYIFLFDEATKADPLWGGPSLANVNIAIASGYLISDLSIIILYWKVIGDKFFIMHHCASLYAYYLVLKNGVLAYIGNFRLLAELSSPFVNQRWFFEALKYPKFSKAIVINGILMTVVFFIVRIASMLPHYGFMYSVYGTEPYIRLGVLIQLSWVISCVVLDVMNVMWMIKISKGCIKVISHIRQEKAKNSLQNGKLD
UniProt P29401: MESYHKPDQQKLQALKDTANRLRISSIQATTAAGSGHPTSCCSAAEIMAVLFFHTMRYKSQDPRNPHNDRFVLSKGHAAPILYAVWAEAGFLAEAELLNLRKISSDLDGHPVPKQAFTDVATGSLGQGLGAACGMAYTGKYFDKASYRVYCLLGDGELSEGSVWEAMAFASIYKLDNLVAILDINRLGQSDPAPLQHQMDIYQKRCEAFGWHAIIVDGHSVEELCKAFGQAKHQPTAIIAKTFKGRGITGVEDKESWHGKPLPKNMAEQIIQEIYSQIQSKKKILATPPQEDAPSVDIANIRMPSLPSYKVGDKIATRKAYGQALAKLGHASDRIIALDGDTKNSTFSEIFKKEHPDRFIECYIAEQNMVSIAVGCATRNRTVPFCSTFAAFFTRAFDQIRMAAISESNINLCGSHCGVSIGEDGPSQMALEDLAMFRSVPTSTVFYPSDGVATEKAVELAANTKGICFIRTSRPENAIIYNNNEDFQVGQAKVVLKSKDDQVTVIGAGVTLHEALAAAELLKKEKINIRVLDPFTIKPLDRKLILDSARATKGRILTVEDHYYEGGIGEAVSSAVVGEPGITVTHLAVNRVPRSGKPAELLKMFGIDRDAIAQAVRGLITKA
UniProt Q9Y5J7: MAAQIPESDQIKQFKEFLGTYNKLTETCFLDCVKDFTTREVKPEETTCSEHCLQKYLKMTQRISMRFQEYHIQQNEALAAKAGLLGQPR
UniProt Q8NDZ6: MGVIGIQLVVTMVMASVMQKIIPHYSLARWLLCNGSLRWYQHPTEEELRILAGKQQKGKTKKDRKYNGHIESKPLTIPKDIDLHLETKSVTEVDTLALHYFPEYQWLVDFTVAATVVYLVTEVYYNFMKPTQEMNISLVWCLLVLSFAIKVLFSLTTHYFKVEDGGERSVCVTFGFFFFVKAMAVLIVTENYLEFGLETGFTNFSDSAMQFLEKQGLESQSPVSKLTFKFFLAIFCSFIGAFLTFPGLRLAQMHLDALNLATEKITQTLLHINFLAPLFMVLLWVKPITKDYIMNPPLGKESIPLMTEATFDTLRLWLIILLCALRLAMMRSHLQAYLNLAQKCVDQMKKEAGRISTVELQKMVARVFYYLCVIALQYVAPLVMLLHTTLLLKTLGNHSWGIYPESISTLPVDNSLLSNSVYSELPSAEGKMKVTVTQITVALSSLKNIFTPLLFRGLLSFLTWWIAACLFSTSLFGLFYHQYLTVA
UniProt Q3ZCQ8: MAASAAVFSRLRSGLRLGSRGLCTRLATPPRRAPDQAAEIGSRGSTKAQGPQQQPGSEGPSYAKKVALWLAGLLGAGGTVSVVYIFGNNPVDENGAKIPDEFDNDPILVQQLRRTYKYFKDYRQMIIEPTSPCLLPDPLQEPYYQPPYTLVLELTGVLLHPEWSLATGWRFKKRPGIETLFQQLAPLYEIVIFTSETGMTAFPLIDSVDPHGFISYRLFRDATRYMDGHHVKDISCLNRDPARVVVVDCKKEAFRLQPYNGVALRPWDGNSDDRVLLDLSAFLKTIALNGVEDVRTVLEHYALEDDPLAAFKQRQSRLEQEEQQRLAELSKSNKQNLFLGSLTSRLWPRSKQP
UniProt O75204: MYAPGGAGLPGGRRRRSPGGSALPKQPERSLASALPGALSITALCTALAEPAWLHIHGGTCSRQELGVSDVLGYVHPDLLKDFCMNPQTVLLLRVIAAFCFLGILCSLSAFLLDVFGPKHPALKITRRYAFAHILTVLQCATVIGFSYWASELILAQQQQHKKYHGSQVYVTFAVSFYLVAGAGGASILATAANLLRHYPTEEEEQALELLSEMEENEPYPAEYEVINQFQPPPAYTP

Legend:
Experiment in all cases: log2 fold change, soluble protein after heating vs DMSO (PISA); higher = thermal stabilisation; K562 lysate, 10 uM; active = over 0.2 and 3.5 SD of the protein, either way, in both replicates (recomputed)
erlotinib = compound: C#Cc1cccc(Nc2ncnc3cc(OCCOC)c(OCCOC)cc23)c1 [erlotinib]
How it was run: (§1)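 A 30 min treatment with 10 μM compound was applied to crude K562 extract at 1 mg/mL protein in PBS pH 7.4 with 1 mM MgCl2. Heating for 3 min spanned 48°C-58°C, after which aliquots were pooled, adjusted to 0.5% NP-40 at 4°C and spun at 21,000xg for 90 min. TMTpro 16plex LC-MS/MS of the supernatant, with channel sums equalised, gave values recorded as log-two fold change in thermal stability against solvent controls, from duplicates.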

[1] = compound: C/C(=N\NC(=O)C1=CC(=CC=C1)S(=O)(=O)N2CCOCC2)/C3=C(C=CC(=C3)Cl)O
How it was run: as §1

[2] = compound: C1=CC(=CC=C1C2=NC3=C(N2)C=C(C=C3)C(=O)N)OC4=CC=C(C=C4)Cl
How it was run: as §1

[3] = compound: C1=CC2=C(C=CC(=C2)/C=C\3/C(=O)NC(=NCC4=CC=CS4)S3)N=C1
How it was run: as §1

[4] = compound: C1=CC2=NC=CN=C2C=C1/C=C/3\C(=O)NC(=O)S3
How it was run: as §1

[5] = compound: C1=CC=C(C=C1)C2=NC(=C(N2)C3=CC=NC=C3)C4=CC(=C(C=C4)Cl)O
How it was run: as §1

[6] = compound: C1=CC=C2C(=C1)C3=NNC4=CC=CC(=C43)C2=O
How it was run: as §1

[7] = compound: C1CCN(C1)C(=O)NC2=CC=CC(=C2)NC3=NC=C(C(=N3)NCCC4=CN=CN4)Br
How it was run: as §1

[8] = compound: C1CN(CCC1(CC2=CC=C(C=C2)Cl)N)C3=NC=NC4=C3C=CN4
How it was run: as §1

IRAK-1-4 Inhibitor I = compound: C1COCCN1CCN2C3=CC=CC=C3N=C2NC(=O)C4=CC(=CC=C4)[N+](=O)[O-] [IRAK-1-4 Inhibitor I]
How it was run: as §1

ibrutinib = compound: C=CC(=O)N1CCC[C@@H](n2nc(-c3ccc(Oc4ccccc4)cc3)c3c(N)ncnc32)C1 [ibrutinib]
How it was run: as §1

[9] = compound: CC(=O)c1cnc2ccc(-c3cc(Cl)c(O)c(Cl)c3)nc2c1N[C@H]1CC[C@H](CN(C)C)CC1
How it was run: as §1

ralimetinib = compound: CC(C)(C)Cn1c(N)nc2ccc(-c3[nH]c(C(C)(C)C)nc3-c3ccc(F)cc3)nc21 [ralimetinib]
How it was run: as §1

[10] = compound: CC(C)(O)CC(=O)NCCn1ccc2ncnc(Nc3ccc(Oc4cccc(C(F)(F)F)c4)c(Cl)c3)c21
How it was run: as §1

[11] = compound: CC(C)C1=C2N=C(C=C(N2N=C1)NCC3=CC=CC=C3)NCCCCCCN
How it was run: as §1

[12] = compound: CC1=C(C(CC(=O)N1)C2=CC=C(C=C2)C(F)(F)F)C(=O)NC3=C(C=C4C(=C3)C=NN4)F
How it was run: as §1

[13] = compound: CC1=C(C2=C(C=C1)C(=O)C3=CC=CC=C3N2CCCN)C
How it was run: as §1

[14] = compound: CC1=C(C=C(C=C1)NC(=O)C2=CC(=CC=C2)C(C)(C)C#N)NC3=CC4=C(C=C3)N=CN(C4=O)C
How it was run: as §1

[15] = compound: CC1=C(C=C(C=C1)NC(=O)C2=CC(=CC=C2)N(C)C)NC(=O)C3=CC=C(C=C3)O
How it was run: as §1

[16] = compound: CC1=CC=C(C=C1)SC2=C3C=C(SC3=CN=C2)C(=O)N
How it was run: as §1

Measured: log2 fold change

TMED10 (UniProt P49755)
inactive: erlotinib 0.01 | [1] 0.094 | [2] -0.05 | [3] 0.006 | [4] -0.024 | [5] 0.009 | [6] -0.001 | [7] 0.019 | [8] 0.025 | IRAK-1-4 Inhibitor I 0.015 | ibrutinib 0.018 | [9] 0.013 | ralimetinib 0.002 | [10] -0.017 | [11] -0.006 | [12] 0.041 | [13] -0.004 | [14] 0.013 | [15] -0.038 | [16] 0.017

TMEM164 (UniProt Q5U3C3)
inactive: erlotinib 0.067 | [1] -0.141 | [2] -0.009 | [3] -0.093 | [4] 0.104 | [5] -0.056 | [6] -0.211 | [7] -0.057 | [8] 0.153 | IRAK-1-4 Inhibitor I 0.094 | ibrutinib 0.053 | [9] -0.066 | ralimetinib -0.171 | [10] -0.252 | [11] -0.035 | [12] -0.184 | [13] -0.153 | [14] 0.255 | [15] 0.027 | [16] -0.061

TLE4 isoform 3 (UniProt Q04727)
inactive: erlotinib -0.075 | [1] 0.034 | [2] 0.018 | [3] 0.025 | [4] 0.003 | [5] 0.017 | [6] 0.036 | [7] -0.019 | [8] -0.004 | IRAK-1-4 Inhibitor I -0.02 | ibrutinib 0.006 | [9] 0.014 | ralimetinib 0.021 | [10] -0.01 | [11] -0.051 | [12] 0.027 | [13] 0.031 | [14] -0.049 | [15] -0.003 | [16] 0

THAP11 (UniProt Q96EK4)
inactive: erlotinib 0.072 | [1] 0.174 | [2] 0.08 | [3] 0.008 | [4] 0.044 | [5] -0.04 | [6] -0.045 | [7] -0.027 | [8] 0.004 | IRAK-1-4 Inhibitor I -0.016 | ibrutinib -0.034 | [9] -0.107 | ralimetinib 0.096 | [10] -0.028 | [11] -0.09 | [12] 0.017 | [13] -0.201 | [15] 0.05 | [16] 0.028

TGS1 (UniProt Q96RS0)
inactive: erlotinib -0.023 | [1] -0.007 | [2] 0.014 | [3] 0.035 | [4] -0.043 | [5] 0.006 | [6] -0.041 | [7] 0.033 | [8] 0.002 | IRAK-1-4 Inhibitor I 0.01 | ibrutinib -0.007 | [9] 0.019 | ralimetinib 0.031 | [10] -0.041 | [11] -0.013 | [12] 0.014 | [13] -0.012 | [14] 0.003 | [15] 0.026 | [16] -0.01

TMBIM6 isoform 2 (UniProt P55061)
inactive: erlotinib -0.009 | [1] 0.054 | [2] -0.103 | [3] -0.09 | [4] 0.017 | [5] 0.011 | [6] -0.014 | [7] -0.032 | [8] -0.002 | IRAK-1-4 Inhibitor I 0.066 | ibrutinib -0.001 | [9] -0.011 | ralimetinib -0.002 | [10] -0.027 | [11] 0 | [12] -0.026 | [13] -0.02 | [14] 0.011 | [15] -0.028 | [16] -0.017

TMC6 (UniProt Q7Z403)
inactive: erlotinib -0.008 | [1] -0.018 | [2] -0.182 | [3] -0.084 | [5] 0.047 | [6] 0.061 | IRAK-1-4 Inhibitor I 0.027 | [9] 0.182 | ralimetinib 0.039 | [10] -0.067 | [11] -0.039 | [12] 0.08 | [14] 0.04 | [15] 0.01 | [16] -0.027

2 entries drawn at random from those above, as already listed:
TGS1 (UniProt Q96RS0)
inactive: erlotinib -0.023 | [1] -0.007 | [2] 0.014 | [3] 0.035 | [4] -0.043 | [5] 0.006 | [6] -0.041 | [7] 0.033 | [8] 0.002 | IRAK-1-4 Inhibitor I 0.01 | ibrutinib -0.007 | [9] 0.019 | ralimetinib 0.031 | [10] -0.041 | [11] -0.013 | [12] 0.014 | [13] -0.012 | [14] 0.003 | [15] 0.026 | [16] -0.01

THAP11 (UniProt Q96EK4)
inactive: erlotinib 0.072 | [1] 0.174 | [2] 0.08 | [3] 0.008 | [4] 0.044 | [5] -0.04 | [6] -0.045 | [7] -0.027 | [8] 0.004 | IRAK-1-4 Inhibitor I -0.016 | ibrutinib -0.034 | [9] -0.107 | ralimetinib 0.096 | [10] -0.028 | [11] -0.09 | [12] 0.017 | [13] -0.201 | [15] 0.05 | [16] 0.028

Going on with the list:

THOC5 (UniProt Q13769)
inactive: erlotinib 0.013 | [1] -0.105 | [2] 0.036 | [3] -0.035 | [4] 0.008 | [5] -0.001 | [6] -0.016 | [7] 0.005 | [8] 0.001 | IRAK-1-4 Inhibitor I -0.012 | ibrutinib 0.023 | [9] 0.004 | ralimetinib 0.015 | [10] -0.011 | [11] 0.008 | [12] -0.011 | [13] -0.002 | [14] 0.004 | [15] 0.018 | [16] -0.001

TM9SF2 (UniProt Q99805)
inactive: erlotinib 0.051 | [1] 0.03 | [2] -0.041 | [3] -0.014 | [4] 0.02 | [5] -0.005 | [6] -0.013 | [7] 0 | [8] 0.028 | IRAK-1-4 Inhibitor I 0.011 | ibrutinib -0.015 | [9] 0.014 | ralimetinib 0.009 | [10] -0.026 | [11] -0.011 | [12] 0.026 | [13] 0.038 | [14] 0.054 | [15] -0.015 | [16] -0.012

TLCD4 (UniProt Q96MV1)
inactive: erlotinib 0 | [1] -0.032 | [2] 0.022 | [3] 0 | [4] 0.029 | [5] -0.042 | [6] -0.059 | [7] 0.025 | [8] -0.002 | IRAK-1-4 Inhibitor I -0.11 | ibrutinib 0.011 | [9] 0.014 | ralimetinib 0.049 | [10] 0.099 | [11] -0.021 | [12] 0.034 | [13] 0.115 | [14] -0.116 | [15] -0.078 | [16] -0.006

TKT isoform 2 (UniProt P29401)
inactive: erlotinib -0.026 | [1] -0.022 | [2] 0.013 | [3] -0.004 | [4] -0.023 | [5] -0.006 | [6] 0.035 | [7] 0 | [8] -0.006 | IRAK-1-4 Inhibitor I -0.003 | ibrutinib 0.027 | [9] 0.014 | ralimetinib 0.022 | [10] 0.002 | [11] -0.007 | [12] -0.032 | [13] 0.018 | [14] -0.009 | [15] -0.009 | [16] -0.009

TIMM9 (UniProt Q9Y5J7)
inactive: erlotinib 0.083 | [1] -0.077 | [2] -0.058 | [3] 0.089 | [4] 0.056 | [5] 0.104 | [6] 0.065 | [7] 0.016 | [8] 0.077 | IRAK-1-4 Inhibitor I 0.025 | ibrutinib 0.167 | [9] -0.106 | ralimetinib -0.052 | [10] 0.04 | [11] -0.032 | [12] -0.037 | [13] -0.011 | [14] 0.128 | [15] -0.044 | [16] 0.076

TMEM161B (UniProt Q8NDZ6)
inactive: erlotinib 0.051 | [1] -0.08 | [2] -0.017 | [3] 0.174 | [4] 0.007 | [5] -0.068 | [6] -0.133 | [7] 0.052 | [8] -0.01 | IRAK-1-4 Inhibitor I 0.09 | ibrutinib -0.026 | [9] 0.197 | ralimetinib 0 | [10] -0.224 | [11] -0.113 | [12] -0.005 | [14] 0.027 | [15] 0.108 | [16] -0.012

TIMM50 isoform 2 (UniProt Q3ZCQ8)
inactive: erlotinib -0.004 | [1] 0.045 | [2] -0.033 | [3] -0.002 | [4] 0.022 | [5] -0.025 | [6] 0.016 | [7] 0 | [8] 0.002 | IRAK-1-4 Inhibitor I -0.008 | ibrutinib 0.04 | [9] -0.032 | ralimetinib 0.014 | [10] -0.053 | [11] -0.017 | [12] 0.105 | [13] 0.052 | [14] 0.047 | [15] 0.014 | [16] -0.032

TMEM127 (UniProt O75204)
inactive: erlotinib -0.017 | [1] 0.029 | [2] 0.066 | [3] -0.15 | [4] -0.209 | [6] -0.106 | [7] 0 | [8] 0.103 | ibrutinib -0.106 | [11] -0.047 | [13] 0.054
